Assay results as given in PMC10654033.
No constants are given. Whether binding was seen depends on the method and setting.

By UniProt entry, the sequences of proteins in these tests, tags left out. Residues count along the entry.
UniProt P02768, residues 25-609: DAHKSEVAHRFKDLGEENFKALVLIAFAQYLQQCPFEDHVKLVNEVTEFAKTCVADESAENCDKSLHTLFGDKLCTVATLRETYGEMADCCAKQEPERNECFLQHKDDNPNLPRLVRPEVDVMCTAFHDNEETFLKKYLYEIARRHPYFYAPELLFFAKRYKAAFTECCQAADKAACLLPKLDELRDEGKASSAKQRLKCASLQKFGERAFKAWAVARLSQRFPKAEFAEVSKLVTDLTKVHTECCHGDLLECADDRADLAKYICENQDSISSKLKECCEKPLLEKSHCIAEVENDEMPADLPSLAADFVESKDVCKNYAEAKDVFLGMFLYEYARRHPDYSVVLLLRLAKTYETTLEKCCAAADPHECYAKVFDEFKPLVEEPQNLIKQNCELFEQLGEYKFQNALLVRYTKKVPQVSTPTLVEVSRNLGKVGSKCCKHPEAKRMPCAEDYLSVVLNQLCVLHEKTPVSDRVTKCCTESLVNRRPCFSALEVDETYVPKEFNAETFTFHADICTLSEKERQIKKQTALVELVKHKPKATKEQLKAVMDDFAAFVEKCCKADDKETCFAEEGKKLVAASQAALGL

Molecular target: human serum albumin (human) (UniProt P02768)
Assay: far-Western, overlay or dot blot; slot binding: IdeS and HSA applied in slots to a PVDF membrane, probed with 125I-labeled SpnA (0.4–0.8 μg/ml) in Tris-buffered saline (0.05 M Tris–HCl, pH 7.5, 0.15 M NaCl) with 3% bovine serum albumin, 3 h at room temperature or 4 °C overnight; both purified

B1: 125I-labeled SpnA (recombinant, residues Val25 to Leu876) (enzyme, UniProt Q9A0J7 25-876)
chain: VTSRQNLTYANEIVTQRPKRESVISDKSNFPVISPYLASVDFGERKTPLPTPDKGVKVTTEQSIAQVRKGPEERPYTVTGKITSVINGWGGYGFYIQDSEGIGLYVYPQKDLGYSKGDIVQLTGTLTRFKGDLQLQQVTAHKKLELSFPTSVKEAVISELETTTPSTLVKLSHVTVGELSTDQYNNTSFLVRDDSGKSIVVHIDHRTGVKGADVVTKISQGDLINLTAILSIVDGQLQLRPFSLEQLEVVKKVTSSNSDASSRNIVKIGEIQGASHTSPLLKKAVTVEQVVVTYLDDSTHFYVQDLNGDGDLATSDGIRVFAKNAKVQVGDVLTISGEVEEFFGRGYEERKQTDLTITQIVAKAVTKTGTAQVPSPLVLGKDRIAPANIIDNDGLRVFDPEEDAIDYWESMEGMLVAVDDAKILGPMKNKEIYVLPGSSTRPLNNSGGVLLPANSYNTDVIPVLFKKGKQIIKAGDSYKGRLAGPVSYSYGNYKVFVDDSKNMPSLMDGHLKPEKTNLQKDLSKLSIASYNIENFSANPSSTKDEKVKRIAESFIHDLNAPDIIGLIEVQDNNGPTDDGTTDATQSAQRLIDAIKKLGGPTYRYVDIAPENNVDGGQPGGNIRTGFLYQPERVSLSDKPKGGARDALTWVNGELNLSVGRIDPTNAAWKDVRKSLAAEFIFQGRKVVVVANHLNSKRGDNALYGCVQPVTFKSEQRRHVLANMLAQFAKEGAKHQANIVMLGDFNDFEFTKTIQLIEEGDMVNLVSRHDISDRYSYFHQGNNQTLDNILVSRHLLDHYEFDMVHVNSPFMEAHGRASDHDPLLLQLSFSKENDKAESSKQSVKAKKTSKGKL
modifications: 125I radiolabel (IODO-BEAD iodination reagent)
With B1 the binding was “no binding (tested: 0.4–0.8 μg/ml 125I-labeled SpnA)”.
